The other results are listed elsewhere or left out. Entries with a potency or affinity are not part of this list.
test system: Pseudomonas aeruginosa; settings: Concentration 20 uM; ASSAY_TEST Inhibition of Bacterial Growth; detection method Absorption (OD600); MEDIA CAMHB; plate type 384well; NBS; CORNING #3640; time 18 hr

SMILES	Inhibition [%]
CC1=CC(C)(C)N=C(S)N1c1cccc2cc(S(=O)(=O)O)ccc12	-12.89
CSC(=NS(=O)(=O)c1ccccc1)NNC(=O)c1c(-c2c(Cl)cccc2Cl)noc1C	-8.64
O=C(O)/C(Cc1c[nH]nn1)=N\O	6.67
COC(=NC(C)C)NC(C)C	21.27
COc1ccc2c(c1)CCN1C2CCN2C(=O)CCC21 (stereo unspecified)	-5.59
CC1CC(C)(C)NC2(CCCC2)N1 (stereo unspecified)	23.49
CC1CO/C(=C2\C(=O)OCC2C)C1 (stereo unspecified)	14.61
COc1cccc(/C=C/c2nccc3ccccc23)c1OC	10.79
NC(=O)c1cc2c3ccccc3ccn2c1-c1ccccc1	5.42
COc1ccc2c(c1)C(=O)C1NC(=O)NC(=O)C1(Br)N2 (stereo unspecified)	17.46
CCCCSc1cc(O)nc(N)n1	31.81
CCOC(=O)C(=Cc1ccc(Br)cc1)C(=O)OCC	23.58
Nc1nc(SCc2ccccc2)sc1C(=O)N1CCCCC1	22.11
CC(=O)O[C@H]1CC[C@@]2(C)[C@@H](CC[C@@H]3[C@@H]2CC(=O)[C@@]2(C)[C@H]3C[C@@H]3CC(C)=CC(=O)[C@@H]32)C1	22.1
OCC1(CO)CC2(C1)CC(CO)(CO)C2	12.93
CC1(C)CCSC(/C=C/c2ccccc2)=N1	0.94
O=C(Nc1ccc(F)cc1)OCCOc1ccc(Br)cc1	14.37
COc1cc(NC(C)=O)c2ncccc2c1Br	19.59
CCOc1ccc(NC(=O)Nc2cc(C(C)C)ccc2C)cc1	-9.19
N#Cc1nnn2c1nc(N)c1c(Cl)cccc12	1.92
C(=N\n1cnnc1)/c1ccc2c(c1)CCC2	1.93
Cc1c2cnccc2c(C)c2c1c1ccccc1n2CCOC(=O)c1ccccc1	20.88
Cc1nc(C(N)=O)nc2ccccc12	14.29

Taken from above:
Inhibition [%], `OCC1(CO)CC2(C1)CC(CO)(CO)C2` is entered as 12.93
Inhibition [%], `COC(=NC(C)C)NC(C)C` is entered as 21.27
Inhibition [%], `CCOc1ccc(NC(=O)Nc2cc(C(C)C)ccc2C)cc1` is entered as -9.19

Additional entries:

SMILES	Inhibition [%]
N#C/N=C/N1CC=C(c2ccc(Cl)cc2)CC1	2
CCCCCCCC1(C)NC(=O)NC1=O (stereo unspecified)	8.41
CC(C)c1nc2c(=O)n(C)c(=O)n(C)c2[nH]1	16.66
O=C1c2cccc(Oc3ccccc3)c2C(=O)c2cccc(Oc3ccccc3)c21	13.08
CCOC(=O)Cc1csc2nc(-c3ccccc3)nn12	0.17
N=C(N)NS(=O)(=O)c1ccc(/N=C2/C(=O)Nc3ccccc32)cc1	27.83
C#CCSc1nc(-c2ccco2)n[nH]1	-2.43
CCOc1ccc(NC(=O)c2cc3ccccc3cc2O)cc1	0.55
CC1=Nc2ccccc2/C1=C\c1c(C)[nH]c2ccccc12	4.61
CN1CCC(n2[nH]c(-c3ccccc3)c(Cc3ccccc3)c2=O)CC1 [BENZPIPERYLON]	18.57
O=C1NC(=S)S/C1=C\c1ccccc1C(=O)O	7.36
Oc1nc(S)ncc1Oc1ccc(Cl)cc1Cl	5.78
O=C(O)c1ccccc1-c1ccccc1C(=O)Nc1ccc2c(c1)nc(O)c1ccccc12	7.38
CN1CCN(C2=NCCO2)CC1	13.46
CC1(C)N=C(N)N=C(NCCCOc2ccc([N+](=O)[O-])cc2)N1.CCS(=O)(=O)O	21.41
COC(=O)c1ccc(Cn2cnc3c(Cl)ncnc32)cc1	-11.44
c1ccc2c(c1)Nc1ccncc1S2	-5.87
Cc1cc2c(c(C#N)c1C)NC=NC2C (stereo unspecified)	22.27
ClC(Cl)(Cl)C1=Nc2c(nnn2Cc2ccccc2)CN1	29.56
Cc1cc2c3ccccc3ncn2n1	6.43
CCOC(=O)c1c(C)nc(C)c(C(=O)OCC)c1-c1cccnc1	-6.77
CS(=O)(=O)O.Cc1cc2c(cc1[N+](=O)[O-])NC(CNC(C)C)CC2 (stereo unspecified)	22.01
C=CCNC(=O)C1COc2ccccc2O1 (stereo unspecified)	2.04

SMILES	Inhibition [%]
COc1ccccc1/C=C(\C#N)C(=O)O	9.79
O=C1CSCc2nc3ccccc3n21	23.81
Cc1ccc(-c2cc(C(=O)O)c3ccccc3n2)c(C)c1	-3.62
Clc1nnc(NC2CCCCC2)c(Cl)c1Cl	24.72
COC(=O)C(=Cc1ccccc1[N+](=O)[O-])C(=O)OC	11.44
Cc1nc2nc(C(F)(F)F)[nH]c2nc1C	-5.5
O=C1C2CC3N1CCC31c3ccccc3-n3c1c2ccc3=O (stereo unspecified)	7.29
COC(=O)Cc1[nH]c(S)nc1C(=O)OC	-22.44
Cn1ncc2c(Nc3ccc([N+](=O)[O-])cc3)nc(Cl)nc21	-8
COc1ccc(OC)c(NC(=O)c2cc3oc4ccccc4c3cc2O)c1	23.58
CC(C)(C)c1ccc(C(=O)Nc2ccc(S(N)(=O)=O)cc2)cc1	20.1
Nc1nc2cc([N+](=O)[O-])ccc2[nH]1	5.12
O=C(O)Cc1sc(O)nc1O	7.74
COC(=O)c1cc2c(n1S(=O)(=O)c1ccc(C)cc1)C(=O)C(=O)c1[nH]cc(C(=O)OCc3ccccc3)c1-2	11.56
O=C1CCCc2cc3c(cc21)CC1(C3)Cc2cc3c(cc2C1)C(=O)CCC3	16.02
O=c1cc(-c2ccccc2)oc2ccc(O)cc12 [6-HYDROXYFLAVONE]	-16.45
CN(C)c1ccc(/C=N/NC(=O)c2cnc3ccccc3c2)cc1	22.63
CCOC(=O)C(C)c1c(C(=O)c2ccc(C)nc2)c2ccccc2n1C (stereo unspecified)	22.42
CC(=O)Nc1nc(C)c(CCC2OCCO2)c(O)n1	-6.6
S=C(SCc1cc(Cl)cc2c1OCOC2)N1CCSCC1	16.56
C=CCN1CCN(c2ccncc2S(=O)(=O)N2CCN(C)CC2)CC1	24.3
COc1cccc(OCC(O)CN2CCN(c3ccc(Cl)cc3)CC2)c1 (stereo unspecified)	3.43
CC(=O)Oc1ccc(OC(C)=O)c2c1CC(C)=C(C)C2	14.2

Structural class, those above containing four or more nitrogen atoms
SMILES	Inhibition [%]
CSC(=NS(=O)(=O)c1ccccc1)NNC(=O)c1c(-c2c(Cl)cccc2Cl)noc1C	-8.64
O=C(O)/C(Cc1c[nH]nn1)=N\O	6.67
N#Cc1nnn2c1nc(N)c1c(Cl)cccc12	1.92
C(=N\n1cnnc1)/c1ccc2c(c1)CCC2	1.93
CC(C)c1nc2c(=O)n(C)c(=O)n(C)c2[nH]1	16.66
N=C(N)NS(=O)(=O)c1ccc(/N=C2/C(=O)Nc3ccccc32)cc1	27.83
CC1(C)N=C(N)N=C(NCCCOc2ccc([N+](=O)[O-])cc2)N1.CCS(=O)(=O)O	21.41
COC(=O)c1ccc(Cn2cnc3c(Cl)ncnc32)cc1	-11.44
ClC(Cl)(Cl)C1=Nc2c(nnn2Cc2ccccc2)CN1	29.56
Cc1nc2nc(C(F)(F)F)[nH]c2nc1C	-5.5
Cn1ncc2c(Nc3ccc([N+](=O)[O-])cc3)nc(Cl)nc21	-8
Nc1nc2cc([N+](=O)[O-])ccc2[nH]1	5.12
CN(C)c1ccc(/C=N/NC(=O)c2cnc3ccccc3c2)cc1	22.63
C=CCN1CCN(c2ccncc2S(=O)(=O)N2CCN(C)CC2)CC1	24.3

Following part

SMILES	Inhibition [%]
CCOc1nsc(OCC)n1	17.95
CCOC(=O)c1cc(-c2ccccc2)nc2ccc(C)cc12 [NEOCINCHOPHEN]	-16.13
Cn1ncc2c(O)nc(N)nc21	19.07
CCCn1cnc2c(Sc3c([N+](=O)[O-])ncn3C)nc(N)nc21	8.99
O=C1CSC(c2cccs2)N1c1nncs1 (stereo unspecified)	23.66
O=[N+]([O-])c1cc2cccnc2c2ncccc12	15.65
CNC1(C(N)=O)CCNCC1	26.22
O=[N+]([O-])c1ccc(Cn2cnc3c(O)ncnc32)cc1	1.92
NS(=O)(=O)c1cc2c(cc1Cl)NC(Cc1ccccc1)NS2(=O)=O (stereo unspecified) [BENZYLHYDROCHLOROTHIAZIDE]	23.15
Cc1ccc(N2CCN(CC(O)COc3cccc(C)c3)CC2)cc1 (stereo unspecified)	17.93
O=C(c1ccccc1)C1C(c2ccccc2)C1[N+](=O)[O-] (stereo unspecified)	-7.45
NC(=O)c1cc(C(N)=O)nc(Cl)n1	24.63
Cn1nc(SCc2ccccc2)c(=O)n(C(c2ccccc2)c2ccccc2)c1=O	13.4
NC(=O)c1ccc(/N=N/c2c(O)c3ccccc3[nH]c2=O)cc1	16.43
O=NC1=C(c2cccc([N+](=O)[O-])c2)Nc2ccccc2S1	5.05
Nc1nc(O)c2nn(-c3ccccc3)nc2n1	3.9
CC(C)(C)c1ccc(OC(=O)c2ccccc2)cc1	5.69
CCOC(=O)Nc1ccc2nc(N3CCCCCC3)sc2c1	25.9
O=C(NC(=S)Nc1cccc2c(O)cccc12)c1cccc(Br)c1	11.01
CCOc1cc2c(Cl)ncnc2c(OCC)c1OCC	3.9
CCC(C)Nc1nc2c(c(=O)n(C)c(=O)n2C)n1C (stereo unspecified)	3.33
CC(O)c1nc2c(c(=O)n(C)c(=O)n2C)n1C (stereo unspecified)	7.16
NC(=O)c1ccccc1OCC(=O)Nc1ccc(Cl)c(Cl)c1	15.81

SMILES	Inhibition [%]
O=C(Nc1cccc2c1N(C(=O)c1ccco1)CCC2)c1ccco1	24.14
CC1=C(c2ccccc2)C=NNCC1=O	28.49
Cn1ncc2c(Nc3ccccc3Cl)nc(Nc3ccccc3Cl)nc21	23.15
CN(C)c1ccc2c(c1)Sc1cc(N(C)C)ccc1N2C(=O)c1ccccc1	29.58
COc1ccc(/N=N/c2c(N)n[nH]c2N)cc1	4.62
CSc1c(N(C)C)c(=O)c1=S	13.32
Cc1ccccc1NC(=O)C(=O)Nc1ccccc1C	13.87
O=c1[nH]c2c(cnn2-c2ccc(Cl)cc2)c(=O)n1-c1cccc(Cl)c1	24.13
OC(COc1cccc2ccccc12)CN1CCN(c2ccccc2Cl)CC1 (stereo unspecified)	-4.41
CN1N=C/C(=C/NC(N)=O)C1=O	21.15
CCOC(=O)/C(=N\O)C1=CSC2=NNC(C)(C)N12	16.63
Cn1c(=O)c2nc(COc3ccc(C(C)(C)C)cc3)[nH]c2n(C)c1=O	2.59
Oc1ccc(Cc2ccc(Cl)cc2)c(O)c1	5.78
CCCCOc1ccc(OC(=O)Nc2cc(Cl)ccc2OC)cc1	19.42
OC(COc1ccc(Cl)cc1)CN1CCN(c2cccc(Cl)c2)CC1 (stereo unspecified)	27.25
CCOC(=O)CCCN(c1[nH]c(C)c(C)c1C#N)S(=O)(=O)c1ccc(C)cc1	22.67
O=C(O)c1ccc2c(c1Sc1ccccc1)C(=O)c1ccccc1C2=O	4.07
COc1ccc(CC(=O)c2ccc(O)cc2O)cc1 [ONONETIN]	3.61
Cc1ccc(Nc2nnc(S)s2)cc1F	3.77

Source: ChEMBL document CHEMBL4296182, “CO-ADD screening of NIH NCI Diversity Set V”
